PubChem BioAssay AID1508597 | Cure First, 2020
Screen: 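Genes whose silencing sensitises or protects ovarian cancer cells against rucaparib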 (primary screen). Cells: human ovarian carcinoma lines grown from tumours: OCI-P5x (papillary serous) and OCI-C5x (clear cell). Knock-down reagent: siRNA pool against human genes, 1.25 pmol siRNA per well. Timing: 72 h or 96 h, depending on the cell culture. Treatment: rucaparib 20 µM (about IC30) or vehicle, present until read-out. Measurement: 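ATP luminescence measured at 72 or 96 h according to the culture, then normalised and expressed as percent viability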. Reading the numbers: viability, normalised: higher = more viable cells remaining. Rule for the call: 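Active when normalised viability falls below 80 percent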. Meaning of the calls: active = viability under 80%; inactive = viability 80% or more.
The deposit covers about 2,100 reagents; this is a part drawn at random. 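Calls flag viability under 80% in either arm, not effects specific to rucaparib; the reference for percent is not stated.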 No sequences are given here. The record does not give: the 100% reference.

The opening 2 entries as a preview:
| Gene | rucaparib or vehicle | cell line | technical replicate | viability, normalised (%) | Call |
| --- | --- | --- | --- | --- | --- |
| CHD3 (chromodomain helicase DNA binding protein 3) | Rucaparib | OCI-C5x (clear cell) | 1 | 46.5 | active |
| CHD3 (chromodomain helicase DNA binding protein 3) | Rucaparib | OCI-C5x (clear cell) | 2 | 51.5 | active |

Results, from the first entry:
| Gene | rucaparib or vehicle | cell line | technical replicate | viability, normalised (%) | Call |
| --- | --- | --- | --- | --- | --- |
| CHD3 (chromodomain helicase DNA binding protein 3) | Rucaparib | OCI-C5x (clear cell) | 1 | 46.5 | active |
| CHD3 (chromodomain helicase DNA binding protein 3) | Rucaparib | OCI-C5x (clear cell) | 2 | 51.5 | active |
| CHD3 (chromodomain helicase DNA binding protein 3) | Rucaparib | OCI-C5x (clear cell) | 3 | 47.4 | active |
| CHD3 (chromodomain helicase DNA binding protein 3) | Rucaparib | OCI-P5x (serous) | 1 | 71.8 | active |
| CHD3 (chromodomain helicase DNA binding protein 3) | Rucaparib | OCI-P5x (serous) | 2 | 74.9 | active |
| CHD3 (chromodomain helicase DNA binding protein 3) | Rucaparib | OCI-P5x (serous) | 3 | 65.7 | active |
| CHD3 (chromodomain helicase DNA binding protein 3) | Vehicle | OCI-C5x (clear cell) | 1 | 36 | active |
| CHD3 (chromodomain helicase DNA binding protein 3) | Vehicle | OCI-C5x (clear cell) | 2 | 53.7 | active |
| CHD3 (chromodomain helicase DNA binding protein 3) | Vehicle | OCI-C5x (clear cell) | 3 | 61.8 | active |
| CHD3 (chromodomain helicase DNA binding protein 3) | Vehicle | OCI-P5x (serous) | 1 | 68.6 | active |
| CHD3 (chromodomain helicase DNA binding protein 3) | Vehicle | OCI-P5x (serous) | 2 | 74.1 | active |
| CHD3 (chromodomain helicase DNA binding protein 3) | Vehicle | OCI-P5x (serous) | 3 | 53.3 | active |
| PAK5 (p21 (RAC1) activated kinase 5) | Rucaparib | OCI-C5x (clear cell) | 1 | 33.1 | active |
| PAK5 (p21 (RAC1) activated kinase 5) | Rucaparib | OCI-C5x (clear cell) | 2 | 41.1 | active |
| PAK5 (p21 (RAC1) activated kinase 5) | Rucaparib | OCI-C5x (clear cell) | 3 | 35.7 | active |
| PAK5 (p21 (RAC1) activated kinase 5) | Rucaparib | OCI-P5x (serous) | 1 | 71.1 | active |
| PAK5 (p21 (RAC1) activated kinase 5) | Rucaparib | OCI-P5x (serous) | 2 | 77.4 | active |
| PAK5 (p21 (RAC1) activated kinase 5) | Rucaparib | OCI-P5x (serous) | 3 | 71.6 | active |
| PAK5 (p21 (RAC1) activated kinase 5) | Vehicle | OCI-C5x (clear cell) | 1 | 54.3 | active |
| PAK5 (p21 (RAC1) activated kinase 5) | Vehicle | OCI-C5x (clear cell) | 2 | 45.9 | active |
| PAK5 (p21 (RAC1) activated kinase 5) | Vehicle | OCI-C5x (clear cell) | 3 | 39.3 | active |
| PAK5 (p21 (RAC1) activated kinase 5) | Vehicle | OCI-P5x (serous) | 1 | 65.3 | active |
| PAK5 (p21 (RAC1) activated kinase 5) | Vehicle | OCI-P5x (serous) | 2 | 69.6 | active |
| PAK5 (p21 (RAC1) activated kinase 5) | Vehicle | OCI-P5x (serous) | 3 | 78.6 | active |
| RPA4 (replication protein A4) | Rucaparib | OCI-C5x (clear cell) | 1 | 57.9 | active |
| RPA4 (replication protein A4) | Rucaparib | OCI-C5x (clear cell) | 2 | 43.8 | active |
| RPA4 (replication protein A4) | Rucaparib | OCI-C5x (clear cell) | 3 | 44.6 | active |
| RPA4 (replication protein A4) | Rucaparib | OCI-P5x (serous) | 1 | 55.2 | active |
| RPA4 (replication protein A4) | Rucaparib | OCI-P5x (serous) | 2 | 68.7 | active |
| RPA4 (replication protein A4) | Rucaparib | OCI-P5x (serous) | 3 | 62.4 | active |
| RPA4 (replication protein A4) | Vehicle | OCI-C5x (clear cell) | 1 | 54.2 | active |
| RPA4 (replication protein A4) | Vehicle | OCI-C5x (clear cell) | 2 | 59.8 | active |
| RPA4 (replication protein A4) | Vehicle | OCI-C5x (clear cell) | 3 | 49 | active |
| RPA4 (replication protein A4) | Vehicle | OCI-P5x (serous) | 1 | 62.6 | active |
| RPA4 (replication protein A4) | Vehicle | OCI-P5x (serous) | 2 | 66.1 | active |
| RPA4 (replication protein A4) | Vehicle | OCI-P5x (serous) | 3 | 67.8 | active |
| XPC | Rucaparib | OCI-C5x (clear cell) | 1 | 56.1 | active |
| XPC | Rucaparib | OCI-C5x (clear cell) | 2 | 50.7 | active |
| XPC | Rucaparib | OCI-C5x (clear cell) | 3 | 52.8 | active |
| XPC | Rucaparib | OCI-P5x (serous) | 1 | 86.6 | inactive |
| XPC | Rucaparib | OCI-P5x (serous) | 2 | 90.5 | inactive |
| XPC | Rucaparib | OCI-P5x (serous) | 3 | 66.5 | active |
| XPC | Vehicle | OCI-C5x (clear cell) | 1 | 66.5 | active |
| XPC | Vehicle | OCI-C5x (clear cell) | 2 | 69.2 | active |
| XPC | Vehicle | OCI-C5x (clear cell) | 3 | 48.8 | active |
| XPC | Vehicle | OCI-P5x (serous) | 1 | 80.5 | inactive |
| XPC | Vehicle | OCI-P5x (serous) | 2 | 76.1 | active |
| XPC | Vehicle | OCI-P5x (serous) | 3 | 89.8 | inactive |
| PRDM12 (PR/SET domain 12) | Rucaparib | OCI-C5x (clear cell) | 1 | 51.2 | active |
| PRDM12 (PR/SET domain 12) | Rucaparib | OCI-C5x (clear cell) | 2 | 48.2 | active |
| PRDM12 (PR/SET domain 12) | Rucaparib | OCI-C5x (clear cell) | 3 | 41.8 | active |
| PRDM12 (PR/SET domain 12) | Rucaparib | OCI-P5x (serous) | 1 | 42.7 | active |
| PRDM12 (PR/SET domain 12) | Rucaparib | OCI-P5x (serous) | 2 | 55.1 | active |
| PRDM12 (PR/SET domain 12) | Rucaparib | OCI-P5x (serous) | 3 | 59.7 | active |
| PRDM12 (PR/SET domain 12) | Vehicle | OCI-C5x (clear cell) | 1 | 48.3 | active |
| PRDM12 (PR/SET domain 12) | Vehicle | OCI-C5x (clear cell) | 2 | 38.3 | active |
| PRDM12 (PR/SET domain 12) | Vehicle | OCI-C5x (clear cell) | 3 | 49.5 | active |
| PRDM12 (PR/SET domain 12) | Vehicle | OCI-P5x (serous) | 1 | 77.4 | active |
| PRDM12 (PR/SET domain 12) | Vehicle | OCI-P5x (serous) | 2 | 49 | active |
| PRDM12 (PR/SET domain 12) | Vehicle | OCI-P5x (serous) | 3 | 49 | active |
